The list shows a part of the results. Values are raw readings; no control value is given beside them.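 Primary screen: polymyxin B was added at a level permeabilizing Salmonella outer membranes while sparing inner membranes. DMSO wells, both with and without polymyxin B, established maximum growth. Plate-to-plate variation meant each plate was ranked on its own, and the lowest-OD600 compounds were selected as hits.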
Tested on: Salmonella enterica serovar Typhimurium SL1344
Assay: bacterial growth OD600 after 18 h with compound and polymyxin B; higher = more bacterial growth (less inhibition)
Conditions: 50 µM, Mueller-Hinton broth

Row | Structure (SMILES) | bacterial growth OD600 (polymyxin B 1 µg/mL) | bacterial growth OD600 (polymyxin B 0.75 µg/mL)
1 | CC(Nc1ccc(C(=O)N2CCC(CN3CCCC3=O)CC2)cn1)C1CC1 (centres undefined) | 1.01 | 
2 | CCO[C@H]1[C@H](NC(=O)c2cccnc2)c2ccccc2C12CCN(C(=O)c1ccc3[nH]ccc3c1)CC2 |  | 0.813
3 | CC(C)(O)C(=O)N1CCC(n2c(C3CCCO3)nc3cc(C(F)(F)F)ccc32)CC1 (centres undefined) |  | 0.869
4 | Cc1cc(C)cc(C(=O)N2CCC(C3(Cc4cccc(F)c4)NC(=O)N(CCN(C)C)C3=O)CC2)c1 (centres undefined) |  | 0.845
5 | COC(=O)c1ccc(CN2CCN(Cc3ccc(OC)c(C)c3)C(CCO)C2)cc1 (centres undefined) | 1.04 | 
6 | CCN(CC)C(=O)CCc1nnc(-c2ccc(C(C)=O)s2)o1 |  | 0.798
7 | COCC(=O)Nc1cc(C(=O)NC2CCCN(Cc3ccccc3)C2)c2c(c1)nc(C1CCC1)n2C (centres undefined) |  | 0.813
8 | CCOC(=O)C1(Cc2ccc(F)cc2)CCCN(C(=O)C2CCC2)C1 (centres undefined) | 0.857 | 
9 | CC(=O)N1CCCN(C(=O)c2csc3nc(-c4ccccc4C)cn23)CC1 | 0.929 | 
10 | COc1ccc(-c2n[nH]cc2CN(CC2CCC2)CC2CCCO2)c(OC)c1 (centres undefined) | 0.74 | 
11 | Cc1cccc(CN2CCC(N3CCC(C(=O)NCCc4ccco4)CC3)CC2)n1 | 1 | 
12 | CCCCN(C)C(=O)c1coc(COc2ccccc2)n1 | 0.831 | 
13 | COc1ccc(CCNC(=O)c2cn(C3CCCCC3)cc(C(=O)NC3CC3)c2=O)cc1 |  | 0.011
14 | O=C(c1cscn1)N1CCCC(CCc2ccc(F)cc2F)C1 (centres undefined) |  | 0.854
15 | COc1ccc(CCC2CCCN(C(=O)CC(F)(F)F)C2)cc1 (centres undefined) |  | 0.67
16 | Cc1nonc1CN(C)C(=O)c1csc2nc(-c3cccc(C(F)(F)F)c3)cn12 | 0.006 | 
17 | O=C(COc1ncnc2ccccc12)NC1CCCN(CC2CCCCC2)C1 (centres undefined) | 1.17 | 
18 | CCN1CCCC1CNC(=O)CCC1CCN(Cc2c(C)nn(C)c2Cl)CC1 (centres undefined) |  | 0.89
19 | CC(C)CCC1(C2CCN(C(=O)/C=C/c3ccc(Cl)cc3)CC2)NC(=O)N(CCN(C)C)C1=O (centres undefined) |  | 0.004

Numbers 7 through 8, reprinted for reference:
Row | Structure (SMILES) | bacterial growth OD600 (polymyxin B 1 µg/mL) | bacterial growth OD600 (polymyxin B 0.75 µg/mL)
7 | COCC(=O)Nc1cc(C(=O)NC2CCCN(Cc3ccccc3)C2)c2c(c1)nc(C1CCC1)n2C (centres undefined) |  | 0.813
8 | CCOC(=O)C1(Cc2ccc(F)cc2)CCCN(C(=O)C2CCC2)C1 (centres undefined) | 0.857 | 

Reference: the supplement of paper PMC12889115
